From PubChem BioAssay AID1508600 (Functional Genomics Laboratory (NCATS/FGL), 2020) come the findings set out here.

Hit rate of the full screen: of about 53,000 sequences, about 3,700 (7%) were called active.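 How the source made its calls: active means gene knockdowns whose robust z-score for IL-1 alpha signal is at least 2 or at most -2, so actives lie on both sides; inactive means the rest.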 Some of the results follow.

The nature of the test: Components of the Cytosolic LPS Sensing Pathway: Gene Identification via Genome-wide siRNA Screen.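 Further: robust z of the log signal after scaling to non-targeting control siRNA wells of the plate.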 The settings on record: RAW264.7 macrophages, IL-1a HTRF, actives lie on both sides, screened at 100 nM (by protocol), cells primed 5 h with Pam3CSK4 first. The essentials:
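Three distinct siRNAs per gene were tested singly at 100 nM in RAW264.7 macrophages. Following Pam3CSK4 priming and 24 hour LipidA transfection, IL-1a secretion was read by HTRF.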
In the case of GGCUUGUUUAUGUGUAAUUTT against Bccip, the z-score was inactive: 1.18.

With GGAUCCUGACAACCCUGUGTT against Sppl2b, the z-score was inactive: -1.32.

As for GCAAGAGUUACUUCUUAUUTT against Hdac9, the z-score is inactive: 0.298.

On to CCGCUUUUCCUGCCUCUGUTT against Dlk2, for which the z-score was inactive: 0.418.

Take GGAUAAAAACUACAAAGAGTT against Cmpk2: the z-score was inactive: -0.563.

As to GCCCUGCACCAGAAAAACATT against Stk40, the z-score was inactive: -0.662.

As for GGAUGUCUACUUUGUAUCUTT against Tph1, the z-score was inactive: -0.697.

Turning to GGACAUAGAUAAAUGCAGATT against Med10, the z-score is inactive: -0.984.

With GGCAAUCAUUGGACUAUACTT against Nckap1, the z-score was active: -2.81.

In the case of GCCUGAUACGUUUUUUAAGTT against Ccr1l1, the z-score is inactive: -1.29.

With CCUAGUCUAGCUGACUUGCTT against Eppin, the z-score was inactive: 1.41.

Turning to GAUGUCUUCUAUGGAGGCATT against Olfr60, the z-score was inactive: 0.0532.

As for GGACCUUUUGUGAACUUACTT against E2f3, the z-score is active: 4.53.

For the sequence GGACAAUCACUCCAGGAGUTT against Gzmg, the z-score was inactive: 1.83.

Regarding GAGAUUGCCAAAGACAAAATT against Vmn1r212, the z-score was inactive: -0.743.

As to GGCUGAAAAAUGCUUGAUUTT against Dhdds, the z-score is inactive: -1.14.

Regarding GGAAGCUUUCCAAUGGCUGTT against Cyp2c29, the z-score is inactive: -0.444.

In the case of “GGCCAAUAAAGGAAAGAAATT against 4930578I06Rik”, the z-score is inactive: -0.38.

As to GGCCAUUUUAUUGUAUGUUTT against Pdik1l, the z-score is inactive: -0.415.

As for GGACAGAGAACAGUUGAUGTT against Mrps9, the z-score was inactive: 0.807.

In the case of GCUAGAGUAGCUUUGGGCATT against Glra3, the z-score was inactive: 1.37.

Turning to GCUACAUCUCAGAAAUCGGTT against Taf8, the z-score is inactive: -1.28.

Consider GGAAGCUACAUGCUGUUCCTT against Anln, for which the z-score was inactive: 0.737.

Regarding GCUUUAUAGGAACCUAAACTT against Sh3tc2, the z-score is inactive: 1.37.

As to GGAUCAACUUACUUGUGGCTT against Tmem168, the z-score is inactive: -0.84.

Consider CCUAACUAUUGUAGUAGCATT against Thrsp, for which the z-score is inactive: 0.409.

As to GCCACCAAGUACUUUGGUUTT against Vmn1r76, the z-score is inactive: 1.34.

GGAGAAAAACAAAGAACACTT against Aif1: the z-score was inactive: -0.342.

Consider GGAGCAAUUAAAGGUGUCATT against Fpr-rs3, for which the z-score is inactive: -0.159.

GGUUUGAAUUAGGUUAGAGTT against Kank1: the z-score was inactive: -1.7.

Turning to GCUUAACACAAAAUAAGGCTT against Tph2, the z-score was inactive: 0.737.

Take GGGACUAUAAGGAACCAGGTT against Fmo3: the z-score was inactive: -0.35.

In the case of GGUCAUAGUUUCUGAAUGATT against Cdx4, the z-score is inactive: -0.315.

As for GGCAGAGCCAGGAUGUCUUTT against Msmb, the z-score was inactive: -1.2.

Turning to GGAGAAUUAACUGUUCCUCTT against Kcnmb2, the z-score was active: 2.23.

With GGCCCUGUGUCAAAUCAGUTT against Zfand6, the z-score is active: 2.1.

AGGUCACCAAACGUGAUGATT against Rc3h1: the z-score is inactive: 0.0137.

As to GGAGCGCGUGAAACUGUCUTT against Fbxw4, the z-score is inactive: -0.752.

Turning to GGUGCACCUGAUGUACAAGTT against Trim25, the z-score was inactive: 0.939.

Take CCACCUGUGCUACCACUUATT against Rexo4: the z-score was active: -2.34.

Regarding GCCUUCCAUACUUCACUACTT against Rtp2, the z-score is inactive: -0.49.

As to GGUUGAUGCCAUGAAGUCCTT against Acyp2, the z-score was inactive: -1.22.

As to GGACAAAGAUGAAAUCCGATT against Btbd3, the z-score is inactive: -0.033.

With GGGACCUAUGCUGUUUCCUTT against Ccdc85a, the z-score was inactive: 0.248.

GGAUGUUCCAUAUUAUACCTT against Adamdec1: the z-score is inactive: 1.06.

As to GCUUACAUCCAAGCCGUCUTT against Prss41, the z-score is inactive: 0.283.

Take GGAAGAGCAGCAGAUGAAATT against Prodh: the z-score was inactive: -1.62.

As to GGAAAUGAUCGAAAUGGCCTT against Pou2f3, the z-score is inactive: -0.89.

Turning to CCUAUACACCCAUUUUUAATT against Arl2bp, the z-score was inactive: 0.163.

As for GGGUCUUUAAACUGAAAGATT against Sh3pxd2a, the z-score is inactive: 0.0777.

On to GCCAAAUAAUCUGAAAGCCTT against Rpl28, for which the z-score was inactive: 0.309.

Turning to GGAAGUUUCUCUGAGAGCUTT against Krt86, the z-score is inactive: -0.0591.

As for GGAUCAGUGGACAAAAUAUTT against Uqcrb, the z-score is inactive: -1.62.

On to CGGUGCUCAUGUUUAACUGTT against Cyb561a3, for which the z-score is inactive: -0.559.

For the sequence GGAAACAGUAGAAGAUGAGTT against Fam220a, the z-score was inactive: 0.151.

As for GGAAUGCAUCGAGUGAAAATT against Pgap4, the z-score was inactive: -0.658.

With CCAAGCCUUAAUAAGUCAATT against Ccp110, the z-score was active: -2.52.

Regarding GGCAUUUCGUGGAUCACCGTT against Mtg2, the z-score was inactive: -1.56.

On to GGAAGCUCUUCAACUCUACTT against Vps4b, for which the z-score is active: 2.06.

UUCUGUGCAUCCUGUCCUATT against Kcnk15: the z-score is inactive: 0.554.

On to CCCAUUGGAACUGCUGUAATT against Metrnl, for which the z-score was inactive: 0.932.

In the case of GGUAUUGAAAAAGCUUUUCTT against Rragc, the z-score is inactive: 1.29.

Turning to GCAUUCUCAAGAGAUGCCCTT against Alk, the z-score is inactive: -1.19.

In the case of GGACUAGUUGUGACUUAAGTT against Aldh1a1, the z-score was inactive: -0.495.

Consider GCAGUAGGUUGCACACAUATT against Art1, for which the z-score was active: -2.11.

Take CCUGUCGUUCCCUUAAAUATT against Asnsd1: the z-score was inactive: 0.315.

Take GGUUGUCUGACACUGUACATT against Nabp2: the z-score is inactive: 0.815.

Take GGCUCCUGGGCAAUAUGAUTT against Hbb-b1: the z-score is inactive: 0.33.

Turning to CGCCAGAUGGACUUCAUCATT against Slc6a8, the z-score was inactive: 1.83.

With GCCGCUAUCGUCUUUAUCATT against Ptk7, the z-score is inactive: 0.00632.

On to GGAACUUAUCCGGUUUGAUTT against Limk1, for which the z-score is inactive: 1.58.

Turning to “GGAAUAUUGCUAAACACAATT against 1700025G04Rik”, the z-score is inactive: 1.29.

With GCUCCAAUGUGGUUGAGCATT against Olfr531, the z-score is inactive: -1.04.

For the sequence CGAUGUAAAGAGCUGGUAGTT against Zdhhc13, the z-score was inactive: 0.802.

Turning to GCUGUUGUUUACUUGGCAATT against Vmn1r197, the z-score is inactive: -0.0655.

Regarding GGGACAUUUUCUUUCUAUUTT against Diaph3, the z-score was inactive: 1.75.

For the sequence “GGAUGUGGUCUCUAUACCGTT against 1600012H06Rik”, the z-score is inactive: -1.55.

Regarding GGAUUCGGGAAGGUGAGAUTT against Cep250, the z-score is inactive: -0.712.

Regarding GCUCAAGGCGACCUGUAUGTT against Map3k1, the z-score is inactive: -1.05.

As for CCAAAAAGUUCAGUGUAAUTT against Rad9b, the z-score was inactive: -1.09.

With GUGUGGUACUCAACCCACUTT against Ffar1, the z-score is inactive: 1.01.

For GGAGAUGGGCAAAGAGAUCTT against Cdk2ap2, the z-score was inactive: 0.111.

With CCAGGUCGAACAUUUAAACTT against Ifit3, the z-score was inactive: 1.71.

For the sequence GCUAGUCAUUUACAGAUCATT against Spesp1, the z-score is inactive: -0.42.

Regarding GGACUACGGCAAAGAUGAGTT against Mrc2, the z-score is inactive: -1.56.

GUUUACACUUUCAGGAAUATT against Olfr1218: the z-score was inactive: 1.16.

As to GGCCAAAGAGUUCAGCCUATT against Prrx2, the z-score is inactive: -0.29.

Turning to GGAAGUGGUGAUGUAAAUATT against Tpp2, the z-score was inactive: -0.994.

As to AUGUGAUAGUGCCCAGCCUTT against Olfr884, the z-score was inactive: 0.433.

Consider GGAUACAUCCUUGCUGAAATT against Dapk1, for which the z-score was inactive: 0.00847.

For CGAUGCAACAUGACCAAGUTT against Gm5800, the z-score is inactive: 1.28.

For the sequence GGCUUGCAUCAAUAAAGAATT against Adam33, the z-score was inactive: 0.0554.

On to GCAAUGGAAAAAUCCAGUUTT against Spink7, for which the z-score was inactive: 0.581.

For the sequence GGUUUGAGGUAACACUAGATT against Vps39, the z-score is inactive: -0.125.

Turning to GCUACAGUCUCUUUUAGCATT against Dync1li1, the z-score was inactive: 0.511.

As to GGGUAUAGCCAGUACCAACTT against Thoc7, the z-score is inactive: -0.557.

For the sequence GGAACAAAUAAAGGUAAACTT against Tgs1, the z-score is inactive: -0.0146.

Turning to “GCCAUUAUUGGAGCUGGCATT against Olfr105-ps”, the z-score is inactive: 0.12.

GCUAACACAACGAGAGAAGTT against Ushbp1: the z-score is active: -2.39.

CGGAAAACGAAUAAACUACTT against Gria2: the z-score is inactive: 1.35.

Turning to GGAAGAGAUGAACUCUCAGTT against Sf3b2, the z-score is inactive: 0.0943.

As for GGGUUUAAGUAUGUUGUAATT against Exoc8, the z-score is inactive: -1.43.

Regarding GCUACAUUCCUCAAAUACCTT against G6pdx, the z-score was inactive: -0.443.

On to CGCACUGCUAAUCAUUCCCTT against Slc35f2, for which the z-score was inactive: -0.00246.

Take GGCAGUGGCUAUCAUGAGATT against Dpep1: the z-score was inactive: -0.748.

For the sequence GCAACUAUGACCAUAAACUTT against Gabre, the z-score is inactive: 0.333.

Consider GCUCCAUUUAUGCUCCCAGTT against Zfp65, for which the z-score is inactive: -0.024.
